Experimental data: publication PMC12669696
Results are given in words; binding and its absence hold for the method and conditions named. In cells and extracts the contact can be indirect. A yes stands for co-enrichment or nearness to the bait. Other partners may have been found.

Protein sequences, listed by entry. Tags and fused reporters are not part of them. Residues count along the entry.
UniProt P36894, residues 24-532: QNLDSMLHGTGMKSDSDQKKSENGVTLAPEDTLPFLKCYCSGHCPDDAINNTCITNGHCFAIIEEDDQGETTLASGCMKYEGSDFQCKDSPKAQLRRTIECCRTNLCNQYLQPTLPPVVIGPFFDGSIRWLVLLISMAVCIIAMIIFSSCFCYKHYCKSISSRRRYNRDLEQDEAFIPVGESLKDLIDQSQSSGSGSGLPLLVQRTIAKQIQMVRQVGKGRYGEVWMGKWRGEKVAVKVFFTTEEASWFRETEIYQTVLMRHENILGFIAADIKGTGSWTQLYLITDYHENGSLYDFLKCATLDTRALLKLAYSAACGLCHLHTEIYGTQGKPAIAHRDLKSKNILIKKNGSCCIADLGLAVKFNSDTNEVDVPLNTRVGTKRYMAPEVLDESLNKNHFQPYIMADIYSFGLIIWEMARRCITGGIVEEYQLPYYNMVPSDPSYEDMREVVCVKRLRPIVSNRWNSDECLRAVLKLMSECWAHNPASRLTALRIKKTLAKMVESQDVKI
UniProt Q86VR2: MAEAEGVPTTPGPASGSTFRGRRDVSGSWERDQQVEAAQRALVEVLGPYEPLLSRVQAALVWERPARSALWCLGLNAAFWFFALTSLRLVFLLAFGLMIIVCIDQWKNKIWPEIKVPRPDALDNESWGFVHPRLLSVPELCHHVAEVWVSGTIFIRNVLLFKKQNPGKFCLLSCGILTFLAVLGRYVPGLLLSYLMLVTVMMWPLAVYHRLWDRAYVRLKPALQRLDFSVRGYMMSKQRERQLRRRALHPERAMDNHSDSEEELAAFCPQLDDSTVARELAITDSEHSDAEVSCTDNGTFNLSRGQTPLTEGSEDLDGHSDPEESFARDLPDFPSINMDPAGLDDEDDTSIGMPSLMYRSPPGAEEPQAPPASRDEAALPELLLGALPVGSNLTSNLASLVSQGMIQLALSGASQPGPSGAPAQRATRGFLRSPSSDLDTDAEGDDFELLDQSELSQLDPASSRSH

Target: BMPR1A (bait of the immunoprecipitation-coupled mass spectrometry screen) (UniProt P36894)
Assay: affinity purification with mass spectrometry; protein-protein interaction screen, BMPR1A as a bait in immunoprecipitation-coupled mass spectrometry

In the case of “FAM134C (hit of the immunoprecipitation-coupled mass spectrometry screen) (from UniProt Q86VR2 1-466)”, the binding is reported as “binds”.
